The test concerns the target recombinant mouse beta 1 integrin (MyBioSource, USA) (mouse) (UniProt P09055). Put plainly: direct ELISA, antigen coated at 1 µg/ml, HRP-labeled antibody. In general terms: In an ELISA, binding on a coated surface is turned into a signal by an enzyme label.

Amino acid sequences for entries named in this document (tags omitted). Residues count along the entry.
UniProt P09055, residues 21-728: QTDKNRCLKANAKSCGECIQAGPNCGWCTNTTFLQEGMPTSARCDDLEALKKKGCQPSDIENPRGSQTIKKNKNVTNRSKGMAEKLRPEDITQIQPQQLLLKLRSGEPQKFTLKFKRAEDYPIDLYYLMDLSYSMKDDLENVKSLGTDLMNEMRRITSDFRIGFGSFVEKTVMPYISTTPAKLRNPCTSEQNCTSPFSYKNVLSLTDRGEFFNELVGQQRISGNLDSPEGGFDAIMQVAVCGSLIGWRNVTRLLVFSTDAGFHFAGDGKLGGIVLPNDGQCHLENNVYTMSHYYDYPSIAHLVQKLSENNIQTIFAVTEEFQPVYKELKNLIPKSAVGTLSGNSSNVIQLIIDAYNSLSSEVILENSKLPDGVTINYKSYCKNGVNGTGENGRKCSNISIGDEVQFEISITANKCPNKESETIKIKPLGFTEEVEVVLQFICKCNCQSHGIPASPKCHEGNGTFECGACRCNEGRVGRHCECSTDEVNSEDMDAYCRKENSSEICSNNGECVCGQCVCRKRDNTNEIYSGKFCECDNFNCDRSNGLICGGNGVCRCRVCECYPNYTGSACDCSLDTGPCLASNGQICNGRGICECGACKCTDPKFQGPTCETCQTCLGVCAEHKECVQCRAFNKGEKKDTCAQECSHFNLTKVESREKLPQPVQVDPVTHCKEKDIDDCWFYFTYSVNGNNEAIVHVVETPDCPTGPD

These are yes or no findings as the source states them, for the method shown. Some results given as binding are weak or reduced against the parent protein; the word gives no strength.

B1: monoclonal antibody GP5 (antibody, human IgG1, V domains shown)
VH: QVQLQQSGSELMKPGASVKVSCKASGYTFTNYWIEWIVQRPGHGLEWIGEILPGSVNTNYNAKFKDRATFTADTSTDTASMELSSLTSEDSAVYYCALATPYYALDSWGQGTSVTVSS
VL: DIVMTQAAPSLSVTPGESVSISCRSTESLLHSNGNTYLYWYLQKPGQSPQLLIYRMSNRASGVPDRFSGSGSGTAFTLKIRRVEAEDVGVYYCMQHLEYPFTFGAGTKLELK
notes: Full IgG made in HEK293F cells; The humanized VH is joined to a human IgG1 heavy chain constant region (CH1, CH2, CH3) and the VL to a human Ckappa; also called humanized antibody GP5; modified monoclonal antibody (GP5)
As for B1, the binding entry is “binds”.

(Values after patent publication US20220372132A1 (SG MEDICAL, published 2022).)
